Source: PubChem BioAssay AID248 (DTP/NCI, 2004)
The list does not hold the whole screen: it gathers some chemical classes. Not every dose and run of a compound is shown. T/C gives the treated animals as a percentage of the vehicle group. Some doses have a count of surviving animals in place of a T/C: the source files T/C as zero there, which appears to mark a toxic dose or a test without result, not a measured value. Counts of survivors are from the toxicity check (mostly the fifth day) where no day follows; animals may have died later. Schedule codes are those of the source, read here as Q, the interval in days (D) or hours (H), X, the number of doses. Some complexes appear as separate parts, the way the source draws them; their charges need not add up. Where survival is the endpoint, this PubChem deposit counts one and a half times the control or more as active, and values a quarter to a half above the control carry no call in these data; other NCI protocols may use other cut-offs. Some entries show no survivor count and are marked so; the dose need not have been tolerated. Some doses were run more than once; their values stand side by side, smallest first. Some T/C values carry the count of animals alive at the toxicity check (mostly the fifth day); without a count or a note in brackets, all were alive then.

System: L1210 leukemia ip in BDF1 mice, survival T/C
Experiment: NCI In Vivo Anticancer Drug Screen. Data for tumor model L1210 Leukemia (intraperitoneal) in B6D2F1 (BDF1) mice
Conditions: T/C endpoint: mean survival time, higher T/C = longer survival

With Cc1cc([N+](=O)[O-])ccc1[N+](=O)[O-] the T/C (dose: 25.0 mg/kg/injection, schedule: Q01DX009 (ip), vehicle: other) was 87 % of control [survivor count not shown], the T/C (dose: 25.0 mg/kg/injection, schedule: Q04DX003 (ip), vehicle: other) was 101 % of control [survivor count not shown] and the T/C (dose: 50.0 mg/kg/injection, schedule: Q01DX009 (ip), vehicle: other) was 91 % of control [survivor count not shown]. The T/C (dose: 50.0 mg/kg/injection, schedule: Q04DX003 (ip), vehicle: other) was 97 % of control [survivor count not shown], the T/C (dose: 100.0 mg/kg/injection, schedule: Q01DX009 (ip), vehicle: other) was 96 % of control [survivor count not shown] and the T/C (dose: 100.0 mg/kg/injection, schedule: Q04DX003 (ip), vehicle: other) was 102 % of control [survivor count not shown].

For CC(C)N(C)CCCl, the T/C (dose: 6.25 mg/kg/injection, schedule: Q01DX009 (ip), vehicle: saline) was 100 % of control [survivor count not shown], the T/C (dose: 12.5 mg/kg/injection, schedule: Q01DX009 (ip), vehicle: saline) was 96 % of control [survivor count not shown] and the T/C (dose: 25.0 mg/kg/injection, schedule: Q01DX009 (ip), vehicle: saline) was 102 [survivor count not shown] and 110 % of control [survivor count not shown]. The T/C (dose: 50.0 mg/kg/injection, schedule: Q01DX009 (ip), vehicle: saline) was 97 % of control [survivor count not shown].

With CC1(C)CC(OP(=O)(Cl)Cl)CC(C)(C)N1O the T/C (dose: 100.0 mg/kg/injection, schedule: Q04DX002 (ip), vehicle: water) was 104 % of control, the T/C (dose: 200.0 mg/kg/injection, schedule: Q04DX002 (ip), vehicle: water) was 101 % of control [2 of 3 alive] and the survivor count (dose: 400.0 mg/kg/injection, schedule: Q04DX002 (ip), vehicle: water) was 0 of 3.

With C=CCCC[P+](C)(c1ccccc1)c1ccccc1.F[P-](F)(F)(F)(F)F the T/C (dose: 6.25 mg/kg/injection, schedule: Q04DX003 (ip), vehicle: Klucel (hydroxypropylcellulose) (HPC)) was 95 % of control, the T/C (dose: 12.5 mg/kg/injection, schedule: Q04DX003 (ip), vehicle: Klucel (hydroxypropylcellulose) (HPC)) was 96 % of control and the survivor count (dose: 25.0 mg/kg/injection, schedule: Q04DX003 (ip), vehicle: Klucel (hydroxypropylcellulose) (HPC)) was 0 of 6. For the same molecule, the survivor count (dose: 50.0 mg/kg/injection, schedule: Q04DX003 (ip), vehicle: Klucel (hydroxypropylcellulose) (HPC)) was 0 of 6, the survivor count (dose: 100.0 mg/kg/injection, schedule: Q04DX003 (ip), vehicle: Klucel (hydroxypropylcellulose) (HPC)) was 0 of 6 and the survivor count (dose: 200.0 mg/kg/injection, schedule: Q04DX003 (ip), vehicle: Klucel (hydroxypropylcellulose) (HPC)) was 0 of 6. The survivor count (dose: 400.0 mg/kg/injection, schedule: Q04DX003 (ip), vehicle: Klucel (hydroxypropylcellulose) (HPC)) was 0 of 6.

O=C(OCCN1CCCCCCCC1)C(O)(c1ccccc1)c1ccccc1 was tested, and the T/C (dose: 100.0 mg/kg/injection, schedule: Q04DX002 (ip), vehicle: saline) was 101 % of control, the T/C (dose: 200.0 mg/kg/injection, schedule: Q04DX002 (ip), vehicle: saline) was 89 % of control and the T/C (dose: 400.0 mg/kg/injection, schedule: Q04DX002 (ip), vehicle: saline) was 97 % of control.

In the case of Cc1ccc(NC(=O)NP(=O)(Nc2ccccc2)Nc2ccccc2)nc1, the T/C (dose: 50.0 mg/kg/injection, schedule: Q01DX001 (ip), vehicle: alcohol) is reported as 92 % of control, the T/C (dose: 100.0 mg/kg/injection, schedule: Q01DX001 (ip), vehicle: alcohol) is reported as 92 % of control and the survivor count (dose: 200.0 mg/kg/injection, schedule: Q01DX001 (ip), vehicle: alcohol) is reported as 0 of 4. The survivor count (dose: 400.0 mg/kg/injection, schedule: Q01DX001 (ip), vehicle: alcohol) was 0 of 4.

For OCCN(CC[OH2+])CC[OH2+].OCCN(CC[OH2+])CC[OH2+].[Ni+2].[O-][Cl+3]([O-])([O-])[O-], the T/C (dose: 50.0 mg/kg/injection, schedule: Q01DX001 (ip), vehicle: carboxymethylcellulose (CMC)) was 104 % of control, the survivor count (dose: 100.0 mg/kg/injection, schedule: Q01DX001 (ip), vehicle: carboxymethylcellulose (CMC)) was 1 of 4 and the survivor count (dose: 200.0 mg/kg/injection, schedule: Q01DX001 (ip), vehicle: carboxymethylcellulose (CMC)) was 0 of 4. For the same molecule, the survivor count (dose: 400.0 mg/kg/injection, schedule: Q01DX001 (ip), vehicle: carboxymethylcellulose (CMC)) was 1 of 4.

O=C1C(F)=C(NCCBr)C(=O)C(F)=C1NCCBr was tested, and the T/C (dose: 6.25 mg/kg/injection, schedule: Q04DX003 (ip), vehicle: saline) was 98 % of control, the T/C (dose: 12.5 mg/kg/injection, schedule: Q04DX003 (ip), vehicle: saline) was 88 % of control and the T/C (dose: 25.0 mg/kg/injection, schedule: Q04DX003 (ip), vehicle: saline) was 92 % of control. The T/C (dose: 50.0 mg/kg/injection, schedule: Q04DX003 (ip), vehicle: saline) was 97 % of control, the T/C (dose: 100.0 mg/kg/injection, schedule: Q04DX003 (ip), vehicle: saline) was 103 % of control and the T/C (dose: 200.0 mg/kg/injection, schedule: Q04DX003 (ip), vehicle: saline) was 95 % of control.
